Measured values taken from US20160177307.
For some of these results: Negatives hold for the conditions tested. For some of these results: For at least one entry, the source does not settle the construct or the ends of the probe.

Chains of the proteins cited; added tags and fusions are not shown. A line that says so, or that is headed by a name, gives the form on record, which may keep a tag or linker. Residues count along the entry.
UniProt P01127, 82-190: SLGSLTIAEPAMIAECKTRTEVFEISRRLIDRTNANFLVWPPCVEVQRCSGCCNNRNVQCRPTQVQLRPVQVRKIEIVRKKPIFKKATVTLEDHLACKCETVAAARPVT
VEGF-121 (Homo sapiens), one chain, as listed by the source: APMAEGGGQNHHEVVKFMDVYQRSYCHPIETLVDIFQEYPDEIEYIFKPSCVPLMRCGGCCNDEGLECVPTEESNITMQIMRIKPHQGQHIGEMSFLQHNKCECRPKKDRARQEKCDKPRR
VEGF-164 (Rattus norvegicus), one chain, as listed by the source: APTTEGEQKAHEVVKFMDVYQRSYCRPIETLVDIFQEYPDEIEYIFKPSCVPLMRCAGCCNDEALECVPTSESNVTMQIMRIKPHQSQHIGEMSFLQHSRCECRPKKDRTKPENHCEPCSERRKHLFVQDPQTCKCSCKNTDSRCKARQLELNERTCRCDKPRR
VEGF-165 (Homo sapiens), one chain, as listed by the source: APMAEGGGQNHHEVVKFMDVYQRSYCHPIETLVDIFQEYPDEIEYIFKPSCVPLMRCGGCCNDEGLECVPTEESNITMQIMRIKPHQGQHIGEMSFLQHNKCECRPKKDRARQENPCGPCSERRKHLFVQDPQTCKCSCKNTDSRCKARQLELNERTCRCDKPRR

Legend:
[1] = target: PDGF-BB (platelet-derived growth factor BB) (Homo sapiens) (UniProt P01127); test: competition with a labelled probe; conditions: purified recombinant protein, single-stranded DNA
[2] = target: PDGF-BB (platelet-derived growth factor BB) (Homo sapiens) (UniProt P01127); test: structure; conditions: purified recombinant protein, single-stranded DNA, variant of 4149-8_130
VEGF-121 (Homo sapiens) [3] = test: competition with a labelled probe; conditions: Nap-dU, 2'-OMe, VEGF isoform not given, purified recombinant protein, protein details: R&D Systems, single-stranded DNA
VEGF-165 (Homo sapiens) = test: filter binding; conditions: purified recombinant protein, single-stranded DNA
[4] = test system: VEGF-164 (Rattus norvegicus); test: filter binding; conditions: P=Nap-dU; NB up to 100 nM; purified recombinant protein; single-stranded DNA
VEGF-121 (Homo sapiens) [5] = test: filter binding; conditions: purified recombinant protein, protein details: R&D Systems, single-stranded DNA; for binding result: all P are NapdU, rest DNA, label: 5'-32P, variant of 4867-31_43
[6] = target: PDGF-BB (platelet-derived growth factor BB) (Homo sapiens) (UniProt P01127); test: filter binding; conditions: purified recombinant protein, single-stranded DNA

Sequence: TTACGTTACCGCGTTTATAGCGGCGATATTTGCGCCATTGCATT [4149-8_445]
- Ki ([1]; Bn-dU, MBn-dU, 2'-OMe, C3, Heg, 3'-3' dimer, 2 Heg): 0.0011 nM

Sequence: CGACAGCATGTATGCACATCTCGACAGCATGTATGCACATCT [5169-4_138]
- Ki ([1]; Nap-dU, head-to-tail dimer, 4 Heg): 0.0049 nM

Sequence: TTACGTTACACGCGTTTATAGCG [4149-8_255 (SL4)]
- binding result ([2]; iBudU at 8 and other modified dU positions, co-crystal 2.3 A, PDB 4HQX): binds

Sequence: CGACAGCATGTATGCACATCTTCTACACGTATGTACGACAGC [5169-4_142]
- Ki ([1]; Nap-dU, 3'-3' dimer, 4 Heg): 0.0055 nM

Sequence: CGACAGCATGTATGCACATCTCGACAGCATGTATGCACATCT [5169-4_140]
- Ki ([1]; Nap-dU, head-to-tail dimer, 6 Heg): 0.0036 nM

Sequence: CCGTTCAAGTGCTTGTAGGATTTAAATGGCCGTTCAAGTGCTTGTAGGATTTAAATGG [4867-31_400]
- Ki (VEGF-121 (Homo sapiens) [3]; head-to-tail dimer, 5 Heg): 0.014 nM

Sequence: TTACGTTACCGCGTTTATAGCGTTACGTTACCGCGTTTATAGCG [4149-8_442]
- Ki ([1]; Bn-dU, MBn-dU, 2'-OMe, C3, Heg, head-to-tail dimer, 4 Heg): 0.00051 nM

Sequence: CCGTTCAAGTGCTTGTAGGATTTAAATGGCCGTTCAAGTGCTTGTAGGATTTAAATGG [4867-31_399]
- Ki (VEGF-121 (Homo sapiens) [3]; head-to-tail dimer, 4 Heg): 0.022 nM

Sequence: AGCCGTTCAAGTGCTTGTAGGATTTA [4867-31_56]
- Kd (VEGF-165 (Homo sapiens); P=Nap-dU, NB up to 100 nM): > 100 nM
- Kd [4]: > 100 nM
- Kd (VEGF-121 (Homo sapiens) [5]; P=Nap-dU, NB up to 100 nM): > 100 nM

Sequence: CAGCCGTTCAAGTGCTTGTAGGATTTAA [4867-31_48]
- Kd (VEGF-165 (Homo sapiens); NapdU at P, NB): > 100 nM
- Kd (VEGF-121 (Homo sapiens) [5]; NapdU at P, NB): > 100 nM

Sequence: CGACAGCATGTATGCACATCTCGACAGCATGTATGCACATCT [5169-4_136]
- Ki ([1]; Nap-dU, head-to-tail dimer, 2 Heg): 0.0087 nM

Sequence: TTACGACTACGTTACACGCGTTTATAGC [4149-8_39]
- Kd (VEGF-165 (Homo sapiens); Bn-dU, VEGF, limit value): > 1000 nM
- Kd (VEGF-121 (Homo sapiens) [5]; Bn-dU, limit value): > 1000 nM

Sequence: CCGTTCAAGTGCTTGTAGGATTTAAATGGCCGTTCAAGTGCTTGTAGGATTTAAATGG [4867-31_397]
- Ki (VEGF-121 (Homo sapiens) [3]; head-to-tail dimer, 2 Heg): 0.043 nM

Sequence: TTACGTTACCGCGTTTATAGCGGCGATATTTGCGCCATTGCATT [4149-8_379D]
- Ki ([1]; Bn-dU, MBn-dU, 2'-OMe, C3, Heg, 3'-3' dimer, no Heg): 0.011 nM

Sequence: CAGCCGTTCAAGTGCTTGTAGGATTTAAA [4867-31_47]
- binding result (VEGF-165 (Homo sapiens); all P are NapdU, rest DNA, NB, label: 5'-32P, variant of 4867-31_43): no binding
- binding result (VEGF-121 (Homo sapiens) [5]; NB): no binding

Sequence: CAGCCGTTCAAGTGCTTGTAGGATTTA [4867-31_49]
- Kd (VEGF-165 (Homo sapiens); NapdU at P, NB): > 100 nM
- Kd [4]: > 100 nM
- Kd (VEGF-121 (Homo sapiens) [5]; NapdU at P, NB): > 100 nM

Sequence: CCGTTCAAGTGCTTGTAGGATTTAAATGGGGTAAATTTAGGATGTTCGTGAACTTGCC [4867-31_402]
- Ki (VEGF-121 (Homo sapiens) [3]; 3'-3' dimer, 2 Heg): 0.027 nM

Sequence: TTACGTTACCGCGTTTATAGCGTTACGTTACCGCGTTTATAGCG [4149-8_438]
- Ki ([1]; Bn-dU, MBn-dU, 2'-OMe, C3, Heg as printed, head-to-tail dimer, no linker, SB18T, 37 C): 0.0042 nM

Sequence: CCGTTCAAGTGCTTGTAGGATTTAAATGGCCGTTCAAGTGCTTGTAGGATTTAAATGG [4867-31_401]
- Ki (VEGF-121 (Homo sapiens) [3]; head-to-tail dimer, 6 Heg): 0.021 nM

Sequence: TTACGTTACCGCGTTTATAGCGTTACGTTACCGCGTTTATAGCG [4149-8_444]
- Ki ([1]; Bn-dU, MBn-dU, 2'-OMe, C3, Heg, head-to-tail dimer, 6 Heg): 0.00061 nM

Sequence: AGCCGTTCAAGTGCTTGTAGGATTTAAA [4867-31_54]
- Kd (VEGF-165 (Homo sapiens); P=Nap-dU, NB up to 100 nM): > 100 nM
- Kd [4]: > 100 nM
- binding result (VEGF-121 (Homo sapiens) [5]; NB): no binding

Sequence: CCGTTCAAGTGCTTGTAGGATTTAAATGGCCGTTCAAGTGCTTGTAGGATTTAAATGG [4867-31_398]
- Ki (VEGF-121 (Homo sapiens) [3]; head-to-tail dimer, 3 Heg): 0.029 nM

Sequence: CGACAGCATGTATGCACATCTTCTACACGTATGTACGACAGC [5169-4_143]
- Ki ([1]; Nap-dU, 3'-3' dimer, 6 Heg): 0.002 nM

Sequence: CAGCCGTTCAAGTGCTTGTAGGATTT [4867-31_50]
- Kd (VEGF-165 (Homo sapiens); P=Nap-dU, NB up to 100 nM): > 100 nM
- Kd [4]: > 100 nM
- Kd (VEGF-121 (Homo sapiens) [5]; P=Nap-dU, NB up to 100 nM): > 100 nM

Sequence: TTACGTTACCGCGTTTATAGCG [4149-8_459]
- Ki ([1]; BndU, NapdU 16, 2'-OMe 3,7,12,13,18,19,21,24, PS 8,9,10,15,16,17, Heg 5, C3 11): 0.013 nM

Sequence: AGCCGTTCAAGTGCTTGTAGGATTTAA [4867-31_55]
- Kd (VEGF-165 (Homo sapiens); P=Nap-dU, NB up to 100 nM): > 100 nM
- Kd [4]: > 100 nM
- Kd (VEGF-121 (Homo sapiens) [5]; P=Nap-dU, NB up to 100 nM): > 100 nM

Sequence: CGACAGCATGTATGCACATCTCGACAGCATGTATGCACATCT [5169-4_139]
- Ki ([1]; Nap-dU, head-to-tail dimer, 5 Heg): 0.0036 nM

Sequence: CGACAGCATGTATGCACATCTTCTACACGTATGTACGACAGC [5169-4_141]
- Ki ([1]; Nap-dU, 3'-3' dimer, 2 Heg): 0.013 nM

Sequence: TTACGTTACCGCGTTTATAGCGTTACGTTACCGCGTTTATAGCG [4149-8_439]
- Ki ([1]; Bn-dU, MBn-dU, 2'-OMe, C3, Heg, head-to-tail dimer, 1 Heg): 0.0035 nM

Sequence: TTACGTTACCGCGTTTATAGCGGCGATATTTGCGCCATTGCATT [4149-8_446]
- Ki ([1]; Bn-dU, MBn-dU, 2'-OMe, C3, Heg, 3'-3' dimer, 4 Heg): 0.00061 nM

Sequence: AGCCGTTCAAGTGCTTGTAGGATTT [4867-31_57]
- Kd (VEGF-165 (Homo sapiens); P=Nap-dU, NB up to 100 nM): > 100 nM
- Kd [4]: > 100 nM
- Kd (VEGF-121 (Homo sapiens) [5]; P=Nap-dU, NB up to 100 nM): > 100 nM

Sequence: CCGTTCAAGTGCTTGTAGGATTTAAATGGGGTAAATTTAGGATGTTCGTGAACTTGCC [4867-31_192D]
- Ki (VEGF-121 (Homo sapiens) [3]; 3'-3' dimer, no Heg): 0.032 nM

Sequence: CCGTTCAAGTGCTTGTAGGATTTAAATGGCCGTTCAAGTGCTTGTAGGATTTAAATGG [4867-31_396]
- Ki (VEGF-121 (Homo sapiens) [3]; head-to-tail dimer, 1 Heg): 0.05 nM

Sequence: CGACAGCATGTATGCACATCTTCTACACGTATGTACGACAGC [5169-4_26D]
- Ki ([1]; Nap-dU, 3'-3' dimer, no Heg): 0.011 nM

Sequence: TTACGTTACCGCGTTTATAGCGTTACGTTACCGCGTTTATAGCG [4149-8_441]
- Ki ([1]; Bn-dU, MBn-dU, 2'-OMe, C3, Heg, head-to-tail dimer, 3 Heg): 0.00078 nM

Sequence: TTACGTTACACGCGTTTATAGCG [4149-8_130]
- Kd (VEGF-165 (Homo sapiens); Bn-dU, Heg linker, 2'-OMe A3, A11, A21, G24, VEGF, limit value): > 1000 nM

Sequence: CGACAGCATGTATGCACATCTCGACAGCATGTATGCACATCT [5169-4_135]
- Ki ([1]; Nap-dU, head-to-tail dimer, 1 Heg): 0.0093 nM

Sequence: TTACGTTACACGCGTTTATAGCG [4149-8_260 (SL5)]
- binding result ([2]; BndU at 1,2,7,8,16,20, PedU at 17, ThdU at 18, 2'-OMe A11,G24, co-crystal 2.2 A, PDB 4HQU, two aptamers per homodimer): binds

Sequence: TTACGTTACACGCGTTTATAGCG [4149-8_273]
- Kd (VEGF-165 (Homo sapiens); Bn-dU, Heg linker, 2'-OMe A3, A11, A19, A21, G24, VEGF, limit value): > 1000 nM
- Kd (VEGF-121 (Homo sapiens) [5]; Bn-dU, Heg linker, 2'-OMe A3, A11, A19, A21, G24, limit value): > 1000 nM

Sequence: AGCCGTTCAAGTGCTTGTAGGATTTAAAT [4867-31_53]
- Kd [4]: > 100 nM

Sequence: TTACGTTACCGCGTTTATAGCGGCGATATTTGCGCCATTGCATT [4149-8_447]
- Ki ([1]; Bn-dU, MBn-dU, 2'-OMe, C3, Heg, 3'-3' dimer, 6 Heg): 0.00088 nM

Sequence: TTACGTTACCGCGTTTATAGCGTTACGTTACCGCGTTTATAGCG [4149-8_440]
- Ki ([1]; Bn-dU, MBn-dU, 2'-OMe, C3, Heg, head-to-tail dimer, 2 Heg): 0.0014 nM

Sequence: CCGTTCAAGTGCTTGTAGGATTTAAATGGGGTAAATTTAGGATGTTCGTGAACTTGCC [4867-31_403]
- Ki (VEGF-121 (Homo sapiens) [3]; 3'-3' dimer, 4 Heg): 0.02 nM

Sequence: CGACAGCATGTATGCACATCT [5169-4_122]
- Kd ([6]; NapdU at P, 2'-OMe 2,10,15, NB): > 3.2 nM

Sequence: CGACAGCATGTATGCACATCTCGACAGCATGTATGCACATCT [5169-4_137]
- Ki ([1]; Nap-dU, head-to-tail dimer, 3 Heg): 0.0051 nM

Sequence: CGACAGCATGTATGCACATCT [5169-4_126]
- Kd ([6]; NapdU at P, 2'-OMe 19,20,21, NB): > 3.2 nM

Sequence: CCGTTCAAGTGCTTGTAGGATTTAAATGGGGTAAATTTAGGATGTTCGTGAACTTGCC [4867-31_404]
- Ki (VEGF-121 (Homo sapiens) [3]; 3'-3' dimer, 6 Heg): 0.033 nM

Sequence: CGACAGCATGTATGCACATC [5169-4_79]
- Kd ([6]; C3 spacer at 21, NapdU at 9,11,13,19, NB up to 100 nM, label: 5'-32P, variant of 5169-4_26): > 100 nM
